The source of these data is article PMC4671958.

By UniProt entry, the sequences of proteins in these tests, tags left out. Residues count along the entry.
UniProt O75417, 67-894: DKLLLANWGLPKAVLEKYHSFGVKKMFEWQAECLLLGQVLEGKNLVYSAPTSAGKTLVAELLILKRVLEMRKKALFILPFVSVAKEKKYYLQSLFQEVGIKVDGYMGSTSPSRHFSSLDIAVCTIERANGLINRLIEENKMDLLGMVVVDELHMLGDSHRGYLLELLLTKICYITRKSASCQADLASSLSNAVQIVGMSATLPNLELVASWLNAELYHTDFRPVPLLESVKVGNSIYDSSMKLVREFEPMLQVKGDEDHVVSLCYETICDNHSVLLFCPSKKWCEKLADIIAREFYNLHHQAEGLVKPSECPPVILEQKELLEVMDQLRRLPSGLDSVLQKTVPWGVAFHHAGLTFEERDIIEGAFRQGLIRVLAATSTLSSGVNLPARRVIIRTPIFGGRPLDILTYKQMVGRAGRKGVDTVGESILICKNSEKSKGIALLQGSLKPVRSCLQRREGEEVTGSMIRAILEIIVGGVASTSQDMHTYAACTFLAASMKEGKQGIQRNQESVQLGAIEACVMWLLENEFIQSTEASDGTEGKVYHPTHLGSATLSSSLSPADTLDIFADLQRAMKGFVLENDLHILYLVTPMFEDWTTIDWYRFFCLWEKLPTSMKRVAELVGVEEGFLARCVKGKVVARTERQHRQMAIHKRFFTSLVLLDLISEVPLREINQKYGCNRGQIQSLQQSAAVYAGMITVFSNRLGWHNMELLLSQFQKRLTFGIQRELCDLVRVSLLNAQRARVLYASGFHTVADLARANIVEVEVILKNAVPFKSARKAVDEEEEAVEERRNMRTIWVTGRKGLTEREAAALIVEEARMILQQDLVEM

In the series the target is Polθ-HLD (DNA polymerase theta helicase domain) (Homo sapiens) (UniProt O75417). The series is described as follows: fluorescence polarization. The following applies: 150 mM NaCl, 10 mM HEPES pH 7.5, 150 mM NaCl (low salt: 50 mM NaCl), 10 nM probe, recombinant protein, residues 67-894, protein details: His6 tag cleaved with TEV.
The mark [1] stands for this setting: range for three- and four-way junctions, label: 5' fluorescein (FITC) on POLQ-1, folded or branched DNA.

The exact form of at least one protein or probe is not confirmed. At least one verdict rests on a figure or table, not on a statement of the authors.

In the case of “ATCGATAGTCGGATCCTCTAGACAGCTCCATGTAGCAAGGCACTGGTAGAATTCGGCAGCGTC (double strand) [Double stranded (POLQ-1 + POLQ-2)]”, the Kd (label: 5' fluorescein (FITC) on POLQ-1) is 0.19 µM. In the case of “ATCGATAGTCGGATCCTCTAGACAGCTCCATGTAGCAAGGCACTGGTAGAATTCGGCAGCGTC / GACGCTGCCGAATTCTACCAGTGCCTTGCTAGGACATCTTTGCCCACCTGCAGGTTCACCC / GGAGCTGTCTAGAGGATCCGACTATCGA / TGGGTGAACCTGCAGGTGGGCAAAGATG [Three-way junction]”, the binding result under setting [1] is given as “binds”. For the sequence “ATCGATAGTCGGATCCTCTAGACAGCTCCATGTAGCAAGGCACTGGTAGAATTCGGCAGCGTC / GACGCTGCCGAATTCTACCAGTGCCTTG [5' overhang (POLQ-1 + POLQ-9)]”, under “range for substrates with significant ssDNA regions, label: 5' fluorescein (FITC) on POLQ-1”, the binding result was “binds”. Take “ATCGATAGTCGGATCCTCTAGACAGCTCCATGTAGCAAGGCACTGGTAGAATTCGGCAGCGTC / GACGCTGCCGAATTCTACCAGTGCCTTGCTAGGACATCTTTGCCCACCTGCAGGTTCACCC / GGGTGAACCTGCAGGTGGGCAAAGATGTCCATTAGTGGATCCTTAGCACCGTTGTAAGACG / CGTCTTACAACGGTGCTAAGGATCCACTAATCATGGAGCTGTCTAGAGGATCCGACTATCGAT [Four-way junction]”: the binding result under setting [1] is reported as “binds”. With “ATCGATAGTCGGATCCTCTAGACAGCTCCATGTAGCAAGGCACTGGTAGAATTCGGCAGCGTC [Single stranded (POLQ-1)]”, the binding result (range for substrates with significant ssDNA regions, label: 5' fluorescein (FITC), single-stranded DNA) was “binds”.

By Kd is commonly meant the free concentration of one partner at which half of the binding sites on the other are occupied at equilibrium, for simple one-to-one binding.
